Measurements: paper PMC10256154, “An unbroken network of interactions connecting flagellin domains is required for motility in viscous environments” (PLOS Pathogens, 2023)
No constants are given. Whether binding was seen depends on the method and setting. Some results given as binding are weak or reduced against the parent protein; the word gives no strength. Tags and fused reporters may be left off the sequences shown.

Target: T1, FliC (type B flagellin) of Pseudomonas aeruginosa PAO1, subunit of the native flagellar filament (Pseudomonas aeruginosa PAO1), P72151
T1 chain: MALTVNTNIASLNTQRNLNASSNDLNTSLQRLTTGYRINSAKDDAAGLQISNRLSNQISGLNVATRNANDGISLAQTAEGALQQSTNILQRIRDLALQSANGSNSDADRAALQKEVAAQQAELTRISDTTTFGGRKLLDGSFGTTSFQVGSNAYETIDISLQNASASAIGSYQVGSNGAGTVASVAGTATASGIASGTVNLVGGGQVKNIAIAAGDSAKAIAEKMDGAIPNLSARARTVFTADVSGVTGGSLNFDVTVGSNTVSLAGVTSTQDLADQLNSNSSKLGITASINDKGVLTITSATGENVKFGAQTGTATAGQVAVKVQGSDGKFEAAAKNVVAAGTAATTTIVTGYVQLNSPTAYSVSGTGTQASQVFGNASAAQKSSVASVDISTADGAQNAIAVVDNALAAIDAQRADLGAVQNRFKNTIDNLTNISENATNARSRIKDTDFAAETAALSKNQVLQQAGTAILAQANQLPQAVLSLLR
Assay: cryo-EM structure; native PAO1 flagellar filaments sheared off cells, in PBS; reconstructed without imposing helical symmetry; both purified
Details: remark: other sources report otherwise

B1: FliC (type B flagellin) of Pseudomonas aeruginosa PAO1, subunit of the native flagellar filament, P72151 1-488 (protein)
chain: T1 chain
binding: binds
